Results: PMC12420808
Results are given in words; binding and its absence hold for the method and conditions named. Binding seen in cells or lysates may run through a third protein. Some results given as binding are weak or reduced against the parent protein; the word gives no strength. For part of these data: Tags and fused reporters may be left off the sequences shown. One block for each molecule: values may come before it.

Sequences of proteins named here, by UniProt entry; tags and fusion partners are left off.
UniProt O35134: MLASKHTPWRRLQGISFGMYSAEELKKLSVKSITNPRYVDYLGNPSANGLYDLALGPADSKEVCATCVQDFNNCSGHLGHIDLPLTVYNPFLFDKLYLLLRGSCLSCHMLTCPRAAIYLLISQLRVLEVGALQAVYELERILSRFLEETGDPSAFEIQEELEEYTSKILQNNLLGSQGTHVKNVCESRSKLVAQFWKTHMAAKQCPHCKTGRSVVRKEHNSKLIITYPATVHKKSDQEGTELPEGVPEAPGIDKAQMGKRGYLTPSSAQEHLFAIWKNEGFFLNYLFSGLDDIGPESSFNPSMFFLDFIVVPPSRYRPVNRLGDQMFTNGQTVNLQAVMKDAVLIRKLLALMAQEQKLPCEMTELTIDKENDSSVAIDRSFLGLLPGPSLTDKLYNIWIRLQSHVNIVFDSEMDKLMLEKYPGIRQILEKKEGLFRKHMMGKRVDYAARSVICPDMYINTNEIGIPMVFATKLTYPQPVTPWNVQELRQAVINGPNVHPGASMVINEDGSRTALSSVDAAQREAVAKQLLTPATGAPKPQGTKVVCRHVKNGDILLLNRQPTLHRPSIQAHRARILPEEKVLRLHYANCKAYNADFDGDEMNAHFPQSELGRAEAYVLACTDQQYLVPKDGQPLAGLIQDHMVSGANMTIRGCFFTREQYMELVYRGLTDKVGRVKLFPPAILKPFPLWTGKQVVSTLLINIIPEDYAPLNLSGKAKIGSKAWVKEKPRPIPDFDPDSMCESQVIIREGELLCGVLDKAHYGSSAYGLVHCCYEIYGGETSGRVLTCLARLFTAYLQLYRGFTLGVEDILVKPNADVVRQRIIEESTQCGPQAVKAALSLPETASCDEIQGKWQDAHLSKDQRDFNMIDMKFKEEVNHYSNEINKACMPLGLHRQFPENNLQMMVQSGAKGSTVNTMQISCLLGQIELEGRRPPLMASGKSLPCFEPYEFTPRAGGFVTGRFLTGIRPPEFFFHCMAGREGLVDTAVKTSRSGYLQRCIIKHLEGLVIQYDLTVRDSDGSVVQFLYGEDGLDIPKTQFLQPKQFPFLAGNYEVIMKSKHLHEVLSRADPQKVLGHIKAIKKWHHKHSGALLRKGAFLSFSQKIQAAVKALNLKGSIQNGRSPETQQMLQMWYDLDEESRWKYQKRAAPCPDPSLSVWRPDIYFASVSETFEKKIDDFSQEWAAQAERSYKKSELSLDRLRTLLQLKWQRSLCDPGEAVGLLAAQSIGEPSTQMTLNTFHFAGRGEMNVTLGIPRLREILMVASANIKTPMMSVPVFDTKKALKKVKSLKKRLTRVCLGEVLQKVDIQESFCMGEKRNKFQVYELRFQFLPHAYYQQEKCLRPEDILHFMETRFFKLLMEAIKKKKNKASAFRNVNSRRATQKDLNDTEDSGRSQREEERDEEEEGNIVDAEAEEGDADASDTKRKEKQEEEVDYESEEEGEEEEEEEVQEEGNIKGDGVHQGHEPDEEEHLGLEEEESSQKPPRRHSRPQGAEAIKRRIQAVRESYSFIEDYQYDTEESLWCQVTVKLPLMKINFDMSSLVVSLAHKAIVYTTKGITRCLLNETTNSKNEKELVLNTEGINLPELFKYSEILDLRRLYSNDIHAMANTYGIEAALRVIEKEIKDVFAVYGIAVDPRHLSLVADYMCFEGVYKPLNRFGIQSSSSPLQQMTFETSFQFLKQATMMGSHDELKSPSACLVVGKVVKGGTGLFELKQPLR
UniProt P09405: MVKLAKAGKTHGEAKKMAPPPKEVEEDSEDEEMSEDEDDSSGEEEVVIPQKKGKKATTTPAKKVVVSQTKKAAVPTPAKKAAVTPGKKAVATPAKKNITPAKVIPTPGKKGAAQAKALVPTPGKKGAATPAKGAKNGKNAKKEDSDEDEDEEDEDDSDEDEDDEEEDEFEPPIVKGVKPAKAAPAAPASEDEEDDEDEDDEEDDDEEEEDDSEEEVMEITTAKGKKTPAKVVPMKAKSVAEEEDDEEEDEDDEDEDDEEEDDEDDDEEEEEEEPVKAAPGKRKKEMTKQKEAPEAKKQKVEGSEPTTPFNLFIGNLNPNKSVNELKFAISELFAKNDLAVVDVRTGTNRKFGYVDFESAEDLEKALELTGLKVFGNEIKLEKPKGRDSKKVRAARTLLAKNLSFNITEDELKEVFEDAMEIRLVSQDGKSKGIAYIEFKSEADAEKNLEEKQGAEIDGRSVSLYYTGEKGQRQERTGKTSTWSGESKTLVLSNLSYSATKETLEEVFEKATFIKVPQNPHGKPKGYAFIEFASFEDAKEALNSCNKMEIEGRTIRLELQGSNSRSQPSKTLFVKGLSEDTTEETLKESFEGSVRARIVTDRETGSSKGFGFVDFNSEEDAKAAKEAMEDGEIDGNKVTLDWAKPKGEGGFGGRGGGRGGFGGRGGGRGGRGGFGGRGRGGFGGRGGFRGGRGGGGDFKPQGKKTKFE

Key:
[1] = molecular target: T1, Kin17 (endogenous, mouse) (mouse (endogenous in neurospheres and cortex)) (UniProt Q8K339); assay: co-IP; endogenous proteins of mouse neurospheres; cells crosslinked with 0.75% formaldehyde, lysed (10 mM Tris-HCl pH 8.0, 1 mM EDTA, 10% glycerol, 0.5% NP-40, 0.25% Triton X-100), sonicated; antibody (anti-Kin17, anti-NCL or anti-Polr1a) on protein A/G magnetic beads, overnight 4 °C; immunoblot; in one experiment lysates treated with RNase A or control solvent
T1 sequence: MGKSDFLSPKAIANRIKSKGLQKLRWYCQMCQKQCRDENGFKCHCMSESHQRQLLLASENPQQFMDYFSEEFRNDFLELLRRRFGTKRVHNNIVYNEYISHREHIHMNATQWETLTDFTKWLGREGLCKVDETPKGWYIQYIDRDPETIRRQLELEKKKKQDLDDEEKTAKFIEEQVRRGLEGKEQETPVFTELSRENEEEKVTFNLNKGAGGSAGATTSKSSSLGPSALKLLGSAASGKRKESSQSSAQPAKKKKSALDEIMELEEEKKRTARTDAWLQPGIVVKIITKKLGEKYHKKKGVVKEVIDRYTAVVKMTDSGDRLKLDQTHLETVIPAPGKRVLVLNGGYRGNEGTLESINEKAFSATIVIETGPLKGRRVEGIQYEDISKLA

[2] = molecular target: Polr1a (endogenous, mouse) (mouse (endogenous in neurospheres)) (UniProt O35134); assay: as above
[3] = molecular target: T1, Kin17 (endogenous, mouse) (mouse (endogenous in neurospheres and cortex)); assay: co-IP; endogenous proteins of the cortex of WT mice at E16.5; anti-Kin17 or anti-NCL antibody on protein A/G magnetic beads; immunoblot
[4] = molecular target: T2, HA-Kin17 (in 293T cells) (mouse) (UniProt Q8K339); assay: co-IP; 293T cells co-transfected with HA-Kin17 and Flag-NCL; IP with anti-HA and blot with anti-Flag, or IP with anti-Flag and blot with anti-HA; cells crosslinked with 0.75% formaldehyde before lysis
T2 sequence: T1 sequence

[5] = molecular target: Nucleolin (NCL) (endogenous, mouse) (mouse (endogenous in neurospheres and cortex)) (UniProt P09405); assay: co-IP; endogenous proteins of mouse neurospheres; cells crosslinked with 0.75% formaldehyde, lysed (10 mM Tris-HCl pH 8.0, 1 mM EDTA, 10% glycerol, 0.5% NP-40, 0.25% Triton X-100), sonicated; antibody (anti-Kin17, anti-NCL or anti-Polr1a) on protein A/G magnetic beads, overnight 4 °C; immunoblot; in one experiment lysates treated with RNase A or control solvent
[6] = molecular target: Nucleolin (NCL) (endogenous, mouse) (mouse (endogenous in neurospheres and cortex)) (UniProt P09405); assay: co-IP; endogenous proteins of the cortex of WT mice at E16.5; anti-Kin17 or anti-NCL antibody on protein A/G magnetic beads; immunoblot
[7] = molecular target: T3, Flag tagged Prmt7 (mouse) (UniProt Q922X9); assay: co-IP; N2a cells transfected with HA-tagged WT Kin17 or R36K mutant along with Flag tagged Prmt7; IP with anti-Flag, blot with anti-HA
T3 sequence: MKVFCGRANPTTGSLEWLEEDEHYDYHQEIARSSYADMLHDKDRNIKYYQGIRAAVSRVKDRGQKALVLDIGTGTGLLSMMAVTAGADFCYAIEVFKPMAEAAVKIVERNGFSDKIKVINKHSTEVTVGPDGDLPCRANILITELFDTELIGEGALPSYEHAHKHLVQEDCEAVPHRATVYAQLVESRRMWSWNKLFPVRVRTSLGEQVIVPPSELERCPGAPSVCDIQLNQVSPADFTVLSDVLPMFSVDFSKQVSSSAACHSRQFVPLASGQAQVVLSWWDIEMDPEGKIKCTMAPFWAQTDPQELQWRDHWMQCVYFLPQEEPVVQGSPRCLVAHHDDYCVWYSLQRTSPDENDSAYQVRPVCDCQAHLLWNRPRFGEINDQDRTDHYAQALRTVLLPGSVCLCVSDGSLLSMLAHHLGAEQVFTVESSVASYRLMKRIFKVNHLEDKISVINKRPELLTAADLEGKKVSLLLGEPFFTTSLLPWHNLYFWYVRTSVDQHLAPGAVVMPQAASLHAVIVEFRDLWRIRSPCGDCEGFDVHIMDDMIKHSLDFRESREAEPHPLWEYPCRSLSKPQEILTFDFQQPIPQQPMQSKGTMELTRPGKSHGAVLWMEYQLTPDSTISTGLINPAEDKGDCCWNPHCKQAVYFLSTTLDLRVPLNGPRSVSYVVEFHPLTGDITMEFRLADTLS

[8] = molecular target: Full-length Flag-NCL (mouse) (UniProt P09405); assay: co-IP; 293T cells co-transfected with HA-Kin17 and Flag-NCL; IP with anti-HA and blot with anti-Flag, or IP with anti-Flag and blot with anti-HA; cells crosslinked with 0.75% formaldehyde before lysis

Molecule: Nucleolin (NCL) (endogenous, mouse) (from UniProt P09405 1-707)
binding [1]: binds
binding [2]: binds
binding [3]: binds

B1: Kin17 (endogenous, mouse) (protein, UniProt Q8K339 1-391)
chain: T1 sequence
binding [2]: binds
binding [5]: binds
binding [6]: binds

B3: HA-Kin17 (in 293T cells) (protein, UniProt Q8K339 1-391)
chain: T1 sequence
binding [8]: binds

Now from value to molecule:

binding [4]: binds
Molecule: Full-length Flag-NCL (from UniProt P09405 1-707)

binding [7]: binds
B2: HA-tagged WT Kin17 (in N2a cells) (protein, UniProt Q8K339 1-391)
chain: T1 sequence
